# Measurements taken from the supplement of paper PMC8728848.
# The list shows a part of the results.
# B1: AFL6 (Aspergillus fumigatus), Q4WKJ1 (protein)
# chain: MSFHLTAEDIRIEDGHRLVARLRNADGDLQDASIDLNTCLGNDNGHFQWDGVDFSHSAQDVHFAIEGGGQVPVLRAQLANQDGEFQDADVNLSERIENINGEFVFH
# Columns and labels:
# Assay in all cases: glycan array binding signal (z-score within array); higher = stronger binding
# Settings in all cases: glycan notation: IUPAC condensed, linker removed
# Neu5Ac(a2-3)Gal = molecular target: Neu5Ac(a2-3)Gal
# Outline: (§1)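 Glycan array data were curated from 3228 arrays in the Consortium for Functional Glycomics database and kept only where the protein sequence was available. Glycan names were converted to IUPAC-condensed notation, and columns mapping to the same glycan were averaged. The binding signal is a within-array Z-score, averaged across arrays of the same protein sequence at different concentrations or buffers and across linkers. Negative Z-scores can be read as non-binding.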
# [1] = molecular target: Neu5Ac(a2-3)Gal(b1-3)GalNAc
# Outline: as §1
# [2] = molecular target: Neu5Ac(a2-3)Gal(b1-3)GalNAc(b1-3)Gal(a1-4)Gal(b1-4)Glc
# Outline: as §1
# [3] = molecular target: Neu5Ac(a2-3)Gal(b1-3)GalNAc(b1-4)Gal(b1-4)Glc
# Outline: as §1
# [4] = molecular target: Neu5Ac(a2-3)Gal(b1-3)GalNAc(b1-4)[Neu5Ac(a2-3)]Gal(b1-4)Glc
# Outline: as §1
# [5] = molecular target: Neu5Ac(a2-3)Gal(b1-3)GalNAc(b1-4)[Neu5Ac(a2-8)Neu5Ac(a2-3)]Gal(b1-4)Glc
# Outline: as §1
# [6] = molecular target: Neu5Ac(a2-3)Gal(b1-3)GalNAc6S
# Outline: as §1
# [7] = molecular target: Neu5Ac(a2-3)Gal(b1-3)GlcNAc
# Outline: as §1
# [8] = molecular target: Neu5Ac(a2-3)Gal(b1-3)GlcNAc(b1-2)Man
# Outline: as §1
# [9] = molecular target: Neu5Ac(a2-3)Gal(b1-3)GlcNAc(b1-2)Man(a1-3)[GlcNAc(b1-4)][Neu5Ac(a2-3)Gal(b1-3)GlcNAc(b1-2)Man(a1-6)]Man(b1-4)GlcNAc(b1-4)GlcNAc
# Outline: as §1
# [10] = molecular target: Neu5Ac(a2-3)Gal(b1-3)GlcNAc(b1-2)Man(a1-3)[Neu5Ac(a2-3)Gal(b1-3)GlcNAc(b1-2)Man(a1-6)]Man(b1-4)GlcNAc(b1-4)GlcNAc
# Outline: as §1
# [11] = molecular target: Neu5Ac(a2-3)Gal(b1-3)GlcNAc(b1-2)[Neu5Ac(a2-3)Gal(b1-3)GlcNAc(b1-4)]Man(a1-6)[Neu5Ac(a2-3)Gal(b1-3)GlcNAc(b1-2)Man(a1-3)]Man(b1-4)GlcNAc(b1-4)GlcNAc
# Outline: as §1
# [12] = molecular target: Neu5Ac(a2-3)Gal(b1-3)GlcNAc(b1-3)Gal(b1-3)GlcNAc
# Outline: as §1
# [13] = molecular target: Neu5Ac(a2-3)Gal(b1-3)GlcNAc(b1-3)Gal(b1-4)GlcNAc
# Outline: as §1
# [14] = molecular target: Neu5Ac(a2-3)Gal(b1-3)GlcNAc(b1-3)GalNAc
# Outline: as §1
# [15] = molecular target: Neu5Ac(a2-3)Gal(b1-3)GlcNAc(b1-6)GalNAc
# Outline: as §1
# [16] = molecular target: Neu5Ac(a2-3)Gal(b1-3)GlcNAc6S
# Outline: as §1
# [17] = molecular target: Neu5Ac(a2-3)Gal(b1-3)[Fuc(a1-4)]GlcNAc
# Outline: as §1
# [18] = molecular target: Neu5Ac(a2-3)Gal(b1-3)[Fuc(a1-4)]GlcNAc(b1-3)Gal(b1-3)[Fuc(a1-4)]GlcNAc
# Outline: as §1
# [19] = molecular target: Neu5Ac(a2-3)Gal(b1-3)[Fuc(a1-4)]GlcNAc(b1-3)Gal(b1-4)[Fuc(a1-3)]GlcNAc
# Outline: as §1
# [20] = molecular target: Neu5Ac(a2-3)Gal(b1-3)[GlcNAc(b1-6)]GalNAc
# Outline: as §1
# [21] = molecular target: Neu5Ac(a2-3)Gal(b1-3)[Neu5Ac(a2-6)]GalNAc
# Outline: as §1
# [22] = molecular target: Neu5Ac(a2-3)Gal(b1-3)[Neu5Ac(a2-6)]GlcNAc(b1-3)[Fuc(a1-3)[Gal(b1-4)]GlcNAc(b1-6)]Gal(b1-4)Glc
# Outline: as §1
# [23] = molecular target: Neu5Ac(a2-3)Gal(b1-3)]Neu5Ac(a2-3)Gal(b1-4)]GlcNAc
# Outline: as §1
# Neu5Ac(a2-3)Gal(b1-4)Glc = molecular target: Neu5Ac(a2-3)Gal(b1-4)Glc
# Outline: as §1
# [24] = molecular target: Neu5Ac(a2-3)Gal(b1-4)GlcNAc
# Outline: as §1
# [25] = molecular target: Neu5Ac(a2-3)Gal(b1-4)GlcNAc(b1-2)Man
# Outline: as §1
# [26] = molecular target: Neu5Ac(a2-3)Gal(b1-4)GlcNAc(b1-2)Man(a1-3)[GlcNAc(b1-4)][Neu5Ac(a2-3)Gal(b1-4)GlcNAc(b1-2)Man(a1-6)]Man(b1-4)GlcNAc(b1-4)GlcNAc
# Outline: as §1
# [27] = molecular target: Neu5Ac(a2-3)Gal(b1-4)GlcNAc(b1-2)Man(a1-3)[Neu5Ac(a2-3)Gal(b1-4)GlcNAc(b1-2)Man(a1-6)]Man(b1-4)GlcNAc(b1-4)GlcNAc
# Outline: as §1
# [28] = molecular target: Neu5Ac(a2-3)Gal(b1-4)GlcNAc(b1-2)Man(a1-3)[Neu5Ac(a2-3)Gal(b1-4)GlcNAc(b1-2)Man(a1-6)]Man(b1-4)GlcNAc(b1-4)[Fuc(a1-6)]GlcNAc
# Outline: as §1
# [29] = molecular target: Neu5Ac(a2-3)Gal(b1-4)GlcNAc(b1-2)Man(a1-3)[Neu5Ac(a2-6)Gal(b1-4)GlcNAc(b1-2)Man(a1-6)]Man(b1-4)GlcNAc(b1-4)GlcNAc
# Outline: as §1
# [30] = molecular target: Neu5Ac(a2-3)Gal(b1-4)GlcNAc(b1-2)[Neu5Ac(a2-3)Gal(b1-4)GlcNAc(b1-4)]Man(a1-3)[GlcNAc(b1-4)][Neu5Ac(a2-3)Gal(b1-4)GlcNAc(b1-2)[Neu5Ac(a2-3)Gal(b1-4)GlcNAc(b1-6)]Man(a1-6)]Man(b1-4)GlcNAc(b1-4)GlcNAc
# Outline: as §1
# [31] = molecular target: Neu5Ac(a2-3)Gal(b1-4)GlcNAc(b1-2)[Neu5Ac(a2-3)Gal(b1-4)GlcNAc(b1-4)]Man(a1-3)[GlcNAc(b1-4)][Neu5Ac(a2-3)Gal(b1-4)GlcNAc(b1-4)Man(a1-6)]Man(b1-4)GlcNAc(b1-4)GlcNAc
# Outline: as §1
# [32] = molecular target: Neu5Ac(a2-3)Gal(b1-4)GlcNAc(b1-2)[Neu5Ac(a2-3)Gal(b1-4)GlcNAc(b1-6)]Man(a1-6)[Neu5Ac(a2-3)Gal(b1-4)GlcNAc(b1-2)Man(a1-3)][GlcNAc(b1-4)]Man(b1-4)GlcNAc(b1-4)GlcNAc
# Outline: as §1
# [33] = molecular target: Neu5Ac(a2-3)Gal(b1-4)GlcNAc(b1-3)Gal
# Outline: as §1
# [34] = molecular target: Neu5Ac(a2-3)Gal(b1-4)GlcNAc(b1-3)Gal(b1-3)GlcNAc
# Outline: as §1
# [35] = molecular target: Neu5Ac(a2-3)Gal(b1-4)GlcNAc(b1-3)Gal(b1-4)GlcNAc
# Outline: as §1
# [36] = molecular target: Neu5Ac(a2-3)Gal(b1-4)GlcNAc(b1-3)Gal(b1-4)GlcNAc(b1-2)Man(a1-3)[Neu5Ac(a2-3)Gal(b1-4)GlcNAc(b1-3)Gal(b1-4)GlcNAc(b1-2)Man(a1-6)]Man(b1-4)GlcNAc(b1-4)GlcNAc
# Outline: as §1
# [37] = molecular target: Neu5Ac(a2-3)Gal(b1-4)GlcNAc(b1-3)Gal(b1-4)GlcNAc(b1-3)Gal(b1-4)GlcNAc
# Outline: as §1
# [38] = molecular target: Neu5Ac(a2-3)Gal(b1-4)GlcNAc(b1-3)Gal(b1-4)GlcNAc(b1-3)Gal(b1-4)GlcNAc(b1-2)Man(a1-3)[Neu5Ac(a2-3)Gal(b1-4)GlcNAc(b1-3)Gal(b1-4)GlcNAc(b1-3)Gal(b1-4)GlcNAc(b1-2)Man(a1-6)]GalNAc
# Outline: as §1
# [39] = molecular target: Neu5Ac(a2-3)Gal(b1-4)GlcNAc(b1-3)Gal(b1-4)GlcNAc(b1-3)GalNAc
# Outline: as §1
# [40] = molecular target: Neu5Ac(a2-3)Gal(b1-4)GlcNAc(b1-3)Gal(b1-4)GlcNAc(b1-3)[Neu5Ac(a2-3)Gal(b1-4)GlcNAc(b1-3)Gal(b1-4)GlcNAc(b1-6)]GalNAc
# Outline: as §1
# [41] = molecular target: Neu5Ac(a2-3)Gal(b1-4)GlcNAc(b1-3)Gal(b1-4)GlcNAc(b1-6)[Gal(b1-3)]GalNAc
# Outline: as §1
# [42] = molecular target: Neu5Ac(a2-3)Gal(b1-4)GlcNAc(b1-3)Gal(b1-4)[Fuc(a1-3)]GlcNAc
# Outline: as §1
# [43] = molecular target: Neu5Ac(a2-3)Gal(b1-4)GlcNAc(b1-3)GalNAc
# Outline: as §1
binder,measurement,setting,value
B1,glycan array binding signal (z-score),Neu5Ac(a2-3)Gal,0.049
same,glycan array binding signal (z-score),[1],-0.419
same,glycan array binding signal (z-score),[2],0.377
same,glycan array binding signal (z-score),[3],-0.31
same,glycan array binding signal (z-score),[4],-0.312
same,glycan array binding signal (z-score),[5],-0.576
same,glycan array binding signal (z-score),[6],0.167
same,glycan array binding signal (z-score),[7],-0.342
same,glycan array binding signal (z-score),[8],-0.44
same,glycan array binding signal (z-score),[9],-0.296
same,glycan array binding signal (z-score),[10],-0.157
same,glycan array binding signal (z-score),[11],-0.133
same,glycan array binding signal (z-score),[12],-0.446
same,glycan array binding signal (z-score),[13],-0.831
same,glycan array binding signal (z-score),[14],0.844
same,glycan array binding signal (z-score),[15],-0.309
same,glycan array binding signal (z-score),[16],-0.697
same,glycan array binding signal (z-score),[17],0.861
same,glycan array binding signal (z-score),[18],-0.019
same,glycan array binding signal (z-score),[19],0.468
same,glycan array binding signal (z-score),[20],-0.145
same,glycan array binding signal (z-score),[21],-0.258
same,glycan array binding signal (z-score),[22],0.794
same,glycan array binding signal (z-score),[23],-0.495
same,glycan array binding signal (z-score),Neu5Ac(a2-3)Gal(b1-4)Glc,-0.315
same,glycan array binding signal (z-score),[24],-0.297
same,glycan array binding signal (z-score),[25],0.634
same,glycan array binding signal (z-score),[26],-0.535
same,glycan array binding signal (z-score),[27],0.029
same,glycan array binding signal (z-score),[28],0.094
same,glycan array binding signal (z-score),[29],-0.427
same,glycan array binding signal (z-score),[30],-0.117
same,glycan array binding signal (z-score),[31],0.321
same,glycan array binding signal (z-score),[32],-0.68
same,glycan array binding signal (z-score),[33],-0.446
same,glycan array binding signal (z-score),[34],-0.105
same,glycan array binding signal (z-score),[35],-0.632
same,glycan array binding signal (z-score),[36],0.526
same,glycan array binding signal (z-score),[37],-0.181
same,glycan array binding signal (z-score),[38],4.83
same,glycan array binding signal (z-score),[39],-0.001
same,glycan array binding signal (z-score),[40],-0.017
same,glycan array binding signal (z-score),[41],-0.146
same,glycan array binding signal (z-score),[42],-0.325
same,glycan array binding signal (z-score),[43],-0.869

# Exported as tab-separated lines: entries from further up
binder	measurement	setting	value
B1	glycan array binding signal (z-score)	[9]	-0.296
same	glycan array binding signal (z-score)	[10]	-0.157
same	glycan array binding signal (z-score)	[11]	-0.133
same	glycan array binding signal (z-score)	[12]	-0.446
